Assay results from paper PMC6010621.
These are yes or no findings as the source states them, for the method shown. Binding seen in cells or lysates may run through a third protein. A yes stands for co-enrichment or nearness to the bait. Other partners may have been found.

Protein sequences, listed by entry. Tags and fused reporters are not part of them. Lines headed by an entry give the natural chain unless they say otherwise; changes in a name come on top.
UniProt Q57ZF1: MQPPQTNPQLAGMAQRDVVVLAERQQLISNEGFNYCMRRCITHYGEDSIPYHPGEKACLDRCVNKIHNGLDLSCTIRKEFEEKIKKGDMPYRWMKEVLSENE
UniProt Q382K7: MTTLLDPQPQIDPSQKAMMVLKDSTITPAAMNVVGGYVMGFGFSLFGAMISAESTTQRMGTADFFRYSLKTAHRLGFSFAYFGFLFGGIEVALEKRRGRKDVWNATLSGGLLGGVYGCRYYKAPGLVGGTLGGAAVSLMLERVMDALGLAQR
UniProt Q57XQ4: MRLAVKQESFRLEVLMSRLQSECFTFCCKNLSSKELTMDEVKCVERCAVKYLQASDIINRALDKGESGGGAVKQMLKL

Target: TbTim10-Myc (Trypanosoma brucei) (UniProt Q57ZF1)
Test: affinity purification with mass spectrometry; anti-myc agarose immunoprecipitate from digitonin-solubilized TbTim10-Myc mitochondrial extract (co-IP protocol scaled up 5-fold), in-gel trypsin digestion, LC-MS/MS; parental wild-type cells as control

| binding | Substance |
| --- | --- |
| binds | T. brucei Tim17 (TbTim17) (from UniProt Q382K7) |
| binds | TbTim9 (endogenous) (from UniProt Q57XQ4) |
